According to the supplement of paper PMC10735217:
Counter-ions that a name gives are not always drawn. The list shows a part of the results. Single values are uncertain here, since repeats match poorly.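 Human kidney-derived cells stably carry a construct in which eight TEAD-binding elements drive luciferase, measured by luminescence in a drug-repurposing library screen. A hit is any compound whose signal exceeds the plate mean by more than five robust Z scores.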

Tested on: HEK293A TEAD-LUC reporter
Assay: TEAD-luciferase reporter activity (YAP activation), robust Z score vs plate; higher = stronger YAP/TEAD activation
Conditions: 24 h

## O=C(c1ccc(CN2CCOCC2)cc1)N1CCN(C2CC2)CC1 [Bavisant]
Compound concentration: 200 nM
  TEAD-luciferase reporter activity: inactive: 2.74
Compound concentration: 2 uM
  TEAD-luciferase reporter activity: inactive: 2.49
Compound concentration: 10 uM
  TEAD-luciferase reporter activity: inactive: -0.529

## CC(=O)N[C@H](Cc1ccc(O)cc1)C(=O)N[C@H](CCCNC(=N)N)C(=O)N[C@H](Cc1ccccc1)C(N)=O
Compound concentration: 200 nM
  TEAD-luciferase reporter activity: inactive: 0.413
Compound concentration: 2 uM
  TEAD-luciferase reporter activity: inactive: 0.898
Compound concentration: 10 uM
  TEAD-luciferase reporter activity: inactive: -0.0439

## O=C1NC(=O)C(Cc2ccc(NC(=O)C3(c4ccccc4)CC3)cc2)S1 (centres undefined)
Compound concentration: 200 nM
  TEAD-luciferase reporter activity: inactive: -2.34
Compound concentration: 2 uM
  TEAD-luciferase reporter activity: inactive: -0.733
Compound concentration: 10 uM
  TEAD-luciferase reporter activity: inactive: 1.51

## CC(C)CC(NC(=O)C(Cc1cnc[nH]1)NC(=O)C(Cc1ccccc1)NC(=O)C1CCCN1C(=O)C(Cc1cnc[nH]1)NC(=O)C1CCCN1)C(=O)NC(CC(C)C)C(=O)NC(C(=O)NC(Cc1ccc(O)cc1)C(=O)NC(CCCCN)C(=O)O)C(C)C (centres undefined) [H-142, AstraZeneca]
Compound concentration: 200 nM
  TEAD-luciferase reporter activity: inactive: -0.173
Compound concentration: 2 uM
  TEAD-luciferase reporter activity: inactive: -0.454
Compound concentration: 10 uM
  TEAD-luciferase reporter activity: inactive: 1.42

## CC(C)N1C(=O)Cc2cc(N3CC(C(N)=O)OC3=O)ccc21 (centres undefined)
Compound concentration: 200 nM
  TEAD-luciferase reporter activity: inactive: -1.28
Compound concentration: 2 uM
  TEAD-luciferase reporter activity: inactive: 1.59
Compound concentration: 10 uM
  TEAD-luciferase reporter activity: inactive: 1.37

## Cc1cccc(-c2n[nH]cc2-c2ccc(F)c(-c3cnn(CCO)c3)c2)n1
Compound concentration: 200 nM
  TEAD-luciferase reporter activity: inactive: -0.683
Compound concentration: 2 uM
  TEAD-luciferase reporter activity: inactive: 0.165
Compound concentration: 10 uM
  TEAD-luciferase reporter activity: inactive: -2.24

## CCOC(=O)Nc1cc2c(c(N)n1)NC(c1ccccc1)=C(C)N2 [mivobulin isethionate]
Compound concentration: 200 nM
  TEAD-luciferase reporter activity: inactive: -2.82
Compound concentration: 2 uM
  TEAD-luciferase reporter activity: inactive: 3.1
Compound concentration: 10 uM
  TEAD-luciferase reporter activity: active: 8.42

## CC(C)NCC(O)COc1ccccc1-n1cccc1 (centres undefined) [Isamoltan hydrochloride]
Compound concentration: 2 uM
  TEAD-luciferase reporter activity: inactive: -2.04

## CC(C)NCC(O)COc1ccccc1-n1cccc1 (centres undefined) [Isamoltane hemifumarate]
Compound concentration: 200 nM
  TEAD-luciferase reporter activity: inactive: -2.03
Compound concentration: 10 uM
  TEAD-luciferase reporter activity: inactive: 0.0258

## CC(=O)NCCC(=O)N1CCC(n2c(=O)[nH]c3ccccc32)CC1
Compound concentration: 200 nM
  TEAD-luciferase reporter activity: inactive: -3.19
Compound concentration: 10 uM
  TEAD-luciferase reporter activity: inactive: -0.922

## CCCCCCCCCCCCC/C=C/[C@H](O)[C@H](COP(=O)([O-])OCC[N+](C)(C)C)NC(=O)CCCCCCCCCCCCCCC
Compound concentration: 200 nM
  TEAD-luciferase reporter activity: inactive: 3.88
Compound concentration: 2 uM
  TEAD-luciferase reporter activity: inactive: -0.42
Compound concentration: 10 uM
  TEAD-luciferase reporter activity: inactive: 0.101

## CCC(C)[C@H](NC(=O)c1ccccc1SSc1ccccc1C(=O)N[C@H](C(=O)O)C(C)CC)C(=O)O (some centres undefined)
Compound concentration: 200 nM
  TEAD-luciferase reporter activity: inactive: 3.17
Compound concentration: 2 uM
  TEAD-luciferase reporter activity: inactive: 0.365
Compound concentration: 10 uM
  TEAD-luciferase reporter activity: inactive: 0.592

## COc1ccccc1OCCOCCOCCN1CCCCC1
Compound concentration: 200 nM
  TEAD-luciferase reporter activity: inactive: -0.466
Compound concentration: 2 uM
  TEAD-luciferase reporter activity: inactive: -1.7
Compound concentration: 10 uM
  TEAD-luciferase reporter activity: inactive: 0.401

## CC(C)Cc1ccc(C(C)C(=O)NCCO)cc1 (centres undefined) [mabuprofen]
Compound concentration: 200 nM
  TEAD-luciferase reporter activity: inactive: -1.29
Compound concentration: 2 uM
  TEAD-luciferase reporter activity: inactive: 4.22
Compound concentration: 10 uM
  TEAD-luciferase reporter activity: inactive: -0.561

## CC(C)(C)OC[C@@H]1C(=O)NCCN1C(=O)C[C@H](N)Cc1cc(F)c(F)cc1F
Compound concentration: 200 nM
  TEAD-luciferase reporter activity: inactive: 0.812
Compound concentration: 2 uM
  TEAD-luciferase reporter activity: inactive: 0.00227
Compound concentration: 10 uM
  TEAD-luciferase reporter activity: inactive: 0.265

## NCCCC(N)CC(=O)NC1CNC(=O)C(C2CC(O)NC(N)=N2)NC(=O)/C(=C/NC(N)=O)NC(=O)C(CO)NC(=O)C(CO)NC1=O (centres undefined)
Compound concentration: 200 nM
  TEAD-luciferase reporter activity: inactive: -0.404
Compound concentration: 2 uM
  TEAD-luciferase reporter activity: inactive: 0.843
Compound concentration: 10 uM
  TEAD-luciferase reporter activity: inactive: 4.26

## Cc1cc(C(=O)N2CCCCc3ccccc32)ccc1CNC(=O)N1CCC[C@H]1C(=O)N(C)C [fedovapagon]
Compound concentration: 200 nM
  TEAD-luciferase reporter activity: inactive: -2.57
Compound concentration: 2 uM
  TEAD-luciferase reporter activity: inactive: -0.969
Compound concentration: 10 uM
  TEAD-luciferase reporter activity: inactive: 0.285

## CCCCC(CC)COC(=O)CC(C(=O)OCC(CC)CCCC)S(=O)(=O)[O-] (centres undefined) [Colace]
Compound concentration: 2 uM
  TEAD-luciferase reporter activity: inactive: -0.191

## CCCCC(CC)COC(=O)CC(C(=O)OCC(CC)CCCC)S(=O)(=O)[O-] (centres undefined)
Compound concentration: 200 nM
  TEAD-luciferase reporter activity: inactive: -2.3
Compound concentration: 10 uM
  TEAD-luciferase reporter activity: inactive: -0.64

## C=CCn1c(=O)c2cnc(Nc3ccc(N4CCN(C)CC4)cc3)nc2n1-c1cccc(C(C)(C)O)n1
Compound concentration: 200 nM
  TEAD-luciferase reporter activity: inactive: 0.666
Compound concentration: 2 uM
  TEAD-luciferase reporter activity: inactive: -2.55
Compound concentration: 10 uM
  TEAD-luciferase reporter activity: inactive: -0.587

## COCCN(CCOC)c1nc(C)nc2c1nnn2-c1ccc(C(C)C)cc1Br
Compound concentration: 200 nM
  TEAD-luciferase reporter activity: inactive: 0.272
Compound concentration: 2 uM
  TEAD-luciferase reporter activity: inactive: -0.369
Compound concentration: 10 uM
  TEAD-luciferase reporter activity: inactive: -0.297

## CC#C[C@@H](CC(=O)O)c1ccc(OCC2=CCCC3(CCCCC3)C2)cc1
Compound concentration: 200 nM
  TEAD-luciferase reporter activity: inactive: 1.43
Compound concentration: 2 uM
  TEAD-luciferase reporter activity: inactive: -0.521
Compound concentration: 10 uM
  TEAD-luciferase reporter activity: inactive: -0.677

## Clc1ccc(C(Cn2ccnc2)OCc2ccc(Sc3ccccc3)cc2)c(Cl)c1 (centres undefined) [Fenticonazole nitrate]
Compound concentration: 200 nM
  TEAD-luciferase reporter activity: inactive: -0.177
Compound concentration: 2 uM
  TEAD-luciferase reporter activity: inactive: -0.688
Compound concentration: 10 uM
  TEAD-luciferase reporter activity: inactive: -1.44

## CC(c1ccccc1)C1Nc2cc(Cl)c(S(N)(=O)=O)cc2S(=O)(=O)N1 (centres undefined) [Bemetizide]
Compound concentration: 200 nM
  TEAD-luciferase reporter activity: inactive: -1.18
Compound concentration: 2 uM
  TEAD-luciferase reporter activity: inactive: -0.37
Compound concentration: 10 uM
  TEAD-luciferase reporter activity: inactive: 0.647

## Cn1c([N+](=O)[O-])cnc1/C=C/c1ccnc(N)n1 [azanidazole]
Compound concentration: 200 nM
  TEAD-luciferase reporter activity: inactive: 0.439
Compound concentration: 2 uM
  TEAD-luciferase reporter activity: inactive: -1.68
Compound concentration: 10 uM
  TEAD-luciferase reporter activity: inactive: -0.212

## NS(=O)(=O)NCc1csc2ccccc12
Compound concentration: 200 nM
  TEAD-luciferase reporter activity: inactive: -0.855
Compound concentration: 2 uM
  TEAD-luciferase reporter activity: inactive: 0.266
Compound concentration: 10 uM
  TEAD-luciferase reporter activity: inactive: 0.56

## COc1ccc(Cc2ncc(CN3CCN(c4ccccc4OC)CC3)c3cc(OC)c(OC)cc23)cc1OC [Elziverine]
Compound concentration: 200 nM
  TEAD-luciferase reporter activity: inactive: -0.455
Compound concentration: 2 uM
  TEAD-luciferase reporter activity: inactive: -1.15
Compound concentration: 10 uM
  TEAD-luciferase reporter activity: inactive: -0.821
